Assay results as given in the supplement of paper PMC10338343.
± gives the standard deviation. Only a part is listed here, and it is no random draw. Many entries were measured with a wide error.

Legend:
[1] = test system: MILI (PIWIL2) piRISC loaded with piRNA #1 (26 nt); experiment: pre-steady-state target cleavage rate (min^-1); higher = faster piRNA-guided slicing of the target; conditions: guide: piRNA #1 5'p-UGAGGUAGUAGGUUGUAUAGUAUCCA; auxiliary factor: 500 nM mouse GTSF1
Method in brief: (§1)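 Active affinity-purified piRISC (1 nM) loaded with one synthetic guide was mixed with a transcribed, DNA-blocked target RNA library (0.1 nM), with or without 500 nM GTSF1 partner protein, in HEPES–potassium acetate buffer at 33 °C for 0–8 or 0–960 min. Uncleaved targets were sequenced, normalised to depth and to weakly complementary targets, and pooled across three trials, with k3 capped at 0.0001 min^-1. The pre-steady-state cleavage rate was determined with a burst-and-steady-state fit.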

[2] = test system: MIWI (PIWIL1) piRISC loaded with piRNA #1 (30 nt); experiment: as above; conditions: guide: piRNA #1 5'p-UGAGGUAGUAGGUUGUAUAGUAUCCAGAGG; auxiliary factor: 500 nM mouse GTSF1
Method in brief: as §1

[3] = test system: EfPiwi piRISC loaded with piRNA #1 (26 nt); experiment: pre-steady-state target cleavage rate (min^-1); guide: piRNA #1 5'p-UGAGGUAGUAGGUUGUAUAGUAUCCA; MIWI and MILI are mouse PIWI proteins and EfPiwi is from a freshwater sponge; tags in brackets are library labels; higher = faster piRNA-guided slicing of the target; conditions: auxiliary factor: 500 nM Ephydatia muelleri Gtsf1
Method in brief: as §1

| Sequence | pre-steady-state target cleavage rate [1] | pre-steady-state target cleavage rate [2] | pre-steady-state target cleavage rate [3] |
| --- | --- | --- | --- |
| GGAGACGAUACUAUACAACGAUGAUGGAGA [g12:g24:cont:t1A] | 0.000328 ± 0.015 | 0.00019 ± 0.022 | 0.000974 ± 0.0056 |
| GGAGACCUAUCUAUACAACCUUCUACCACA | 0.00592 ± 0.0023 | 0.136 ± 0.015 | 0.00131 ± 0.0058 |
| GGAGACCUAUGAUAUGUAGCCUACUACCUCA | 0.00244 ± 0.0035 | 0.000126 ± 0.036 | 0.000258 ± 0.012 |
| GGAGACCUAUGAUAACAUCCUACUACCUGA | 0.00151 ± 0.0046 | 0.000228 ± 0.011 | 0.000973 ± 0.0072 |
| GGAGAGGAUACUAUACAACCUUGAACCUCA | 0.000176 ± 0.021 | 0.000752 ± 0.004 | 0.00408 ± 0.004 |
| GGAGACCUAUGAUUACAAGCCUACUACCUCA | 0.000475 ± 0.012 | 0.000196 ± 0.014 | 0.00171 ± 0.0047 |
| GGAGACCUAUGUAUACAACCUACUCACCUCA | 0.0823 ± 0.015 | 0.144 ± 0.027 | 0.000324 ± 0.019 |
| GGAGUGGAUACUAUACAACCUACAACGUCA | 0.000949 ± 0.0044 | 0.0012 ± 0.0032 | 0.00302 ± 0.0017 |
| GGAGAGGAUACUAUACAACGUAGUACCUCA | 0.000825 ± 0.0093 | 0.00148 ± 0.0053 | 0.00159 ± 0.0023 |
| GGAGACCUAUGAAUACAUGCUACUACCUCA | 0.00268 ± 0.0026 | 0.000114 ± 0.02 | 0.00119 ± 0.0054 |
| GGAGACCUAACUAAACUACCUACUACCUCA | 0.0594 ± 0.017 | 0.00115 ± 0.011 | 0.00179 ± 0.0054 |
| GGAGACCUAACUAUACAUGGUACUACCUCA | 0.00174 ± 0.0088 | 0.00061 ± 0.013 | 0.00289 ± 0.0051 |
| GGAGACCUAUGAUAACAAGCUACAACCUCA | 0.0095 ± 0.0029 | 0.000209 ± 0.0089 | 0.000995 ± 0.0093 |
| GGAGACCUAUGAUAACAACCUAACUACCUCA | 0.00282 ± 0.0031 | 0.00103 ± 0.0036 | 0.00064 ± 0.011 |
| GGAGACCUAUGUAUACAACCUACUUCCUGA | 0.00819 ± 0.0021 | 0.00103 ± 0.0039 | 0.000434 ± 0.0087 |
| GGAGACCUAUGAUAUGUUGCUACUUACCUCA | 0.000395 ± 0.012 | 0.000447 ± 0.0087 | 0.000291 ± 0.01 |
| GGAGACCUAUGAUUACAGACCUACUACCUCA | 0.000218 ± 0.016 | 0.000527 ± 0.0076 | 0.00137 ± 0.0063 |
| GGAGACCUAUGUAUACAACACUACUACCUCA | 0.000625 ± 0.0085 | 0.000129 ± 0.022 | 0.00125 ± 0.0069 |
| GGAGACCUAUGAUAACAACCUUCUACGUCA | 0.000593 ± 0.0089 | 0.000223 ± 0.0074 | 0.000282 ± 0.0075 |
| GGAGACCUAUGAUAACAAACCUACUACCUCA | 0.00137 ± 0.005 | 0.000137 ± 0.024 | 0.000856 ± 0.0062 |
| GGAGACGAUACUAUACAACCUUGAUGGAGA [g10:g24:cont:t1A] | 0.000438 ± 0.017 | 0.000709 ± 0.012 | 0.00126 ± 0.0033 |
| GGAGACCUAUGAUAACAACCUUCUACCUGA | 0.000608 ± 0.0077 | 0.000237 ± 0.0076 | 0.00022 ± 0.0081 |
| GGAGACCUAUGUAUACUACCAACUACCUCA | 0.00234 ± 0.0026 | 0.000142 ± 0.012 | 0.000247 ± 0.015 |

Part of the list above, with tabs.
Sequence	pre-steady-state target cleavage rate [1]	pre-steady-state target cleavage rate [2]	pre-steady-state target cleavage rate [3]
GGAGACCUAUGAUAACAUCCUACUACCUGA	0.00151 ± 0.0046	0.000228 ± 0.011	0.000973 ± 0.0072
GGAGAGGAUACUAUACAACCUUGAACCUCA	0.000176 ± 0.021	0.000752 ± 0.004	0.00408 ± 0.004
GGAGACCUAUGAUUACAAGCCUACUACCUCA	0.000475 ± 0.012	0.000196 ± 0.014	0.00171 ± 0.0047
GGAGACCUAUGUAUACAACCUACUCACCUCA	0.0823 ± 0.015	0.144 ± 0.027	0.000324 ± 0.019
GGAGUGGAUACUAUACAACCUACAACGUCA	0.000949 ± 0.0044	0.0012 ± 0.0032	0.00302 ± 0.0017
GGAGAGGAUACUAUACAACGUAGUACCUCA	0.000825 ± 0.0093	0.00148 ± 0.0053	0.00159 ± 0.0023
